The record followed here is PubChem BioAssay AID2685 (National Center for Advancing Translational Sciences (NCATS), 2010).

The other results are listed elsewhere or left out. Shown are side measurements of this screen, not its main read-out; they come without a call. Most of these compounds were active or inconclusive in the main read-out, so they are no random draw. Words in brackets tell the shape of the fitted curve; partial curves, single points and poor fits give uncertain potencies.

The experiment in a line: qHTS Assay for Lipid Storage Modulators in Drosophila S3 Cells.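 For cell number change: cells counted by Cell Tracker Red CMTPX staining in the red channel.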 The note with it: BODIPY lipid droplet fluorescence, 18-24 h; for cell number change: measured here: cell count max response, cells fed with added oleic acid. The method, boiled down:
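Drosophila S3 cells got compounds at several concentrations plus oleic acid (400 uM solution). Laser-scanning cytometry with 488 nm excitation read lipid droplets at 500-530 nm and cells at 575-640 nm. Percent activity was relative to 20 uM Triacsin C.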
A general note: qHTS replaces the single test concentration by a dilution series.

[1] abbreviates: measured here: lipid fluorescence (Fed channel) AC50, cells fed with added oleic acid.
Where [2] appears, read: measured here: cell number channel AC50, cells fed with added oleic acid.

For `Cc1ccccc1NC(=S)NCc1ccc2c(c1)cc(C)n2C`, the cell number change is 16.5%. The AC50 under setting [1] was 13 µM [rising, partial curve].

In the case of `O=c1c2ccccc2nc(-c2ccccc2)n1CCCn1ccnc1`, the cell number change is -7.03%. In addition, the AC50 under setting [1] is 25.9 µM [rising, partial curve, poor fit].

Turning to `COc1ccccc1N(C)S(=O)(=O)c1ccc(C(=O)N(C)Cc2ccc(Cl)s2)cc1`, the cell number change was -59.8%. Under setting [2], the AC50 was 16.4 µM [falling, partial curve].

Turning to `CN(C)c1ccc(NC(=O)CN2CCN(S(=O)(=O)c3cc(Cl)ccc3Cl)CC2)cc1`, the cell number change is -11.8%. The AC50 under setting [1] is 7.31 µM [rising, partial curve].

Turning to `CC1(C)c2[nH]c3ccccc3c2C[C@H]2C(=O)N(N)CC(=O)N21`, the cell number change came to 0.826%.

On to `CC1CCN(C(=O)CNC(=O)Cn2ccc3ccccc3c2=O)CC1`, for which the cell number change turned out to be 2.72%. Further, the AC50 under setting [1] is 1.16 µM [falling, single point].

With `COc1ccc(CCNC(=O)CSc2ccccc2)cc1OC`, the cell number change is -6.44%.

On to `COc1ccc(COc2ccc(S(=O)(=O)N3CCCC3)cc2C(N)=O)cc1F`, for which the cell number change worked out at 41.3%. Under setting [2], the AC50 is 29.1 µM [rising, partial curve, poor fit]. Further, the AC50 under setting [1] is 29.1 µM [rising, single point].

On to `COc1ccc(N2CC(C(=O)N(CC(C)C)c3c(N)n(Cc4ccccc4)c(=O)[nH]c3=O)CC2=O)c(OC)c1` (stereo not given), for which the cell number change is 6.59%. Also, the concentration at half-maximal activity (AC50) under setting [1] was 9.2 µM [rising, partial curve, poor fit].

As for `COCCN(C(=O)COC(=O)c1ccc2[nH]c(C)c(C)c2c1)c1c(N)n(Cc2ccccc2)c(=O)[nH]c1=O`, the cell number change is -33.2%. In addition, the half-maximal activity concentration (AC50) under setting [2] was 20.6 µM [falling, single point]. Further, the AC50 under setting [1] was 29.1 µM [falling, single point].

Take `Cc1cc(C)n(CCc2nc(-c3ccc(F)cc3)cs2)n1`: the cell number change was found to be 24%. Also, the concentration at half-maximal activity (AC50) under setting [2] is 0.651 µM [rising, full curve, poor fit].

Take `Cc1ccc2c(c1)sc(-c1ccc(N(C)C)cc1)[n+]2C`: the cell number change is -36%. In addition, the half-maximal activity concentration (AC50) under setting [2] was 5.17 µM [falling, full curve, poor fit].

With `CC1(C)CC2CC(C)(CN2S(=O)(=O)c2ccc(C(=O)Nc3ccc(S(=O)(=O)N4CCOCC4)cc3)cc2)C1` (stereo not given), the cell number change is -5.63%. In addition, the AC50 under setting [1] was 25.9 µM [falling, partial curve].

Regarding `O=C(NCCc1ccc2c(c1)OCCO2)c1ccc([N+](=O)[O-])cc1Cl`, the cell number change came to 39.7%. The AC50 under setting [2] is 6.51 µM [rising, partial curve]. The AC50 under setting [1] is 14.6 µM [rising, single point].

Take `CCOc1ccc(-c2nc(CCl)cs2)cc1OC`: the cell number change stood at 14%. For the same compound, the AC50 under setting [1] is 0.282 µM [rising, full curve, poor fit].

For the compound `O=C(NCCc1ccccc1)c1c[nH]c2c(F)cccc2c1=O`, the cell number change amounted to 6.02%. In addition, the AC50 under setting [1] is 23.1 µM [rising, single point].

Consider `CNC(=S)NCCN1CCOCC1`, for which the AC50 under setting [2] was 3.66 µM [rising, partial curve].

Regarding `COc1cc(C#Cc2c(-c3ccccc3)n(C)c3ccccc23)cc(OC)c1`, the cell number change stood at 38.8%. Further, the AC50 under setting [2] is 13 µM [rising, partial curve]. Besides, under setting [1], the half-maximal activity concentration (AC50) was 11.6 µM [falling, single point].

Turning to `O=C(NCC1COc2ccccc2O1)C1CCN(S(=O)(=O)c2cccc3nsnc23)CC1` (stereo not given), the cell number change is -10.9%. In addition, under setting [1], the concentration at half-maximal activity (AC50) was 20.6 µM [falling, single point].

For the compound `CC(C)(C)c1ccc(S(=O)(=O)NCC(=O)N2CCCC2)cc1`, the cell number change came out at 10.6%. Besides, the concentration at half-maximal activity (AC50) under setting [1] was 29.1 µM [rising, single point].

As for `COc1ccc(Oc2nc(-c3ccccc3)ncc2S(=O)(=O)c2ccccc2)cc1`, under setting [1], the AC50 is 0.0058 µM [rising, full curve, poor fit].

`CC(C)(O)C#Cc1ccccc1C(=O)NC(CC(N)=O)C(=O)O` (stereo not given): the AC50 under setting [2] is 3.66 µM [falling, single point].

As to `O=S(=O)(c1ccc(Oc2ccc(Br)cc2)cc1)N1CCOCC1`, the AC50 under setting [1] was 11.6 µM [falling, partial curve, poor fit].

Consider `Cc1c(/C=N/n2cnnc2)c2ccccc2n1CCOc1ccccc1`, for which the cell number change was -29.2%. For the same compound, the half-maximal activity concentration (AC50) under setting [1] was 18.4 µM [rising, single point].

Regarding `O=C1c2ccccc2NC(c2ccccn2)N1c1ccc(Cl)cc1` (stereo not given), the cell number change is 0.0503%.

For `O=S(=O)(Nc1nc2ccccc2nc1Cl)c1ccc(Br)cc1`, the cell number change stood at 7.71%. Further, the concentration at half-maximal activity (AC50) under setting [1] is 4.61 µM [rising, single point].

On to `COCCN(CCOC)c1nc(S(=O)(=O)c2ccc(C)cc2)c(Cl)s1`, for which the cell number change is 40.2%. Also, the AC50 under setting [2] was 9.2 µM [rising, partial curve]. The half-maximal activity concentration (AC50) under setting [1] is 4.11 µM [rising, single point].

As to `CC#C[C@]1(O)CC[C@H]2[C@@H]3CCC4=CC(=O)CCC4=C3[C@@H](c3ccc(N(C)C)cc3)C[C@@]21C`, the cell number change came out at 31.1%. Besides, the concentration at half-maximal activity (AC50) under setting [1] is 18.4 µM [rising, partial curve].

Regarding `CC(C)NC(=O)c1ccccc1NC(=O)/C=C/c1cccc([N+](=O)[O-])c1`, the cell number change was -71.7%. The half-maximal activity concentration (AC50) under setting [2] is 16.4 µM [falling, partial curve]. Moreover, the AC50 under setting [1] is 23.1 µM [falling, single point].

`COc1ccc(C(=O)Nc2nc(C)c(C(C)=O)s2)cc1S(=O)(=O)N1CCOCC1`: the cell number change was -5.84%.

In the case of `COC(=O)c1c(NC(=O)C2(C)Cc3ccccc3C(=O)O2)sc2c1CCCC2` (stereo not given), the cell number change is 6.17%. The AC50 under setting [1] is 2.06 µM [rising, partial curve].

With `CN(CC(=O)Nc1ccccc1Cl)C(=O)COC(=O)/C=C/c1cccs1`, the cell number change is -3.01%. Moreover, under setting [1], the concentration at half-maximal activity (AC50) is 0.82 µM [rising, full curve, poor fit].

`O=C(Cc1ccc2c(c1)CCCC2)Nc1ccc2ccccc2c1`: the AC50 under setting [2] is 0.731 µM [falling, single point].

On to `CCN(CC)S(=O)(=O)c1ccc(S(=O)(=O)NCc2cccs2)cc1`, for which the cell number change stood at 21.1%. Further, the half-maximal activity concentration (AC50) under setting [2] was 4.61 µM [rising, single point].

`O=C(Oc1cccc(O)c1)C1CCCCC1`: the cell number change is 20.6%. Further, under setting [1], the AC50 was 5.17 µM [falling, single point].

Take `O=C(Nc1ccc(NC(=O)c2ccccc2F)cn1)c1ccco1`: the cell number change came out at 36.8%.

As for `CCOc1ccc(C(=O)NC(=S)Nc2cccc(S(=O)(=O)NC3=NCCC3)c2)cc1`, the cell number change is 82.6%.

In the case of `CCOc1ccc(CCNC(=O)C2CC=CCC2C(=O)OC(C)C)cc1OCC` (stereo not given), the cell number change was -18%. Moreover, the AC50 under setting [1] was 18.4 µM [falling, single point].

Regarding `O=C1CCCc2ccccc2N1Cc1ccc(F)cc1`, the cell number change was found to be 0.264%. Moreover, the half-maximal activity concentration (AC50) under setting [2] is 0.291 µM [falling, single point].

As for `CCCc1[nH]nc2c1C(c1cc(OC)ccc1F)C(C#N)=C(N)O2` (stereo not given), the cell number change is -50.1%. Besides, under setting [2], the concentration at half-maximal activity (AC50) is 16.4 µM [falling, partial curve]. For the same compound, under setting [1], the AC50 was 18.4 µM [falling, single point].

On to `O=C(NCCC1=CCCCC1)C1CCN(S(=O)(=O)c2cccc(C(F)(F)F)c2)CC1`, for which the cell number change is -6.19%. Besides, the half-maximal activity concentration (AC50) under setting [1] is 7.31 µM [falling, partial curve].

As for `O=C(NCc1n[nH]c(=S)n1-c1ccccc1)c1cccs1`, the cell number change is -18%. In addition, the half-maximal activity concentration (AC50) under setting [1] is 6.51 µM [rising, single point].

Regarding `CC(=Nc1ccc2c(c1)nc(CO)n2C)C1=C(O)CC(C)(C)CC1=O`, the AC50 under setting [2] is 2.31 µM [falling, partial curve, poor fit] and the AC50 under setting [1] was 0.82 µM [falling, full curve].

For `N#Cc1cn(-c2ccccc2)nc1-c1ccccc1`, the cell number change was -26.4%. For the same compound, the half-maximal activity concentration (AC50) under setting [1] was 29.1 µM [falling, single point].

For the compound `Cc1ccc2[nH]c(=O)c(CN(C(=O)c3cccc([N+](=O)[O-])c3)C(C)(C)C)cc2c1`, the cell number change came out at 2.88%.

On to `COC(=O)c1cc(NC(=O)c2cccc(C(F)(F)F)c2)c(=O)oc1C/C=N/OCc1cccc(Cl)c1Cl`, for which the cell number change amounted to 4.11%. Under setting [1], the AC50 was 6.51 µM [falling, single point].

With `CCC(C)NC(=O)CC1Oc2ccc(Cl)cc2NC1=O` (stereo not given), the cell number change stood at 2.9%. Further, under setting [1], the AC50 was 0.231 µM [falling, full curve, poor fit].

For `O=C(NNC(=O)c1ccc(Br)s1)c1ccc(F)c(S(=O)(=O)N2CCOCC2)c1`, the cell number change is -15.9%. Moreover, the AC50 under setting [1] was 0.082 µM [rising, full curve, poor fit].

As to `CCCOC(=O)Nc1cc(OC)c(Cl)cc1OC`, the cell number change was found to be 14.4%. Under setting [1], the half-maximal activity concentration (AC50) is 14.6 µM [rising, partial curve].

As for `CCN(C(=O)CSc1nc2ccccc2n1CC)C1CCS(=O)(=O)C1` (stereo not given), the cell number change was found to be 40.3%. Besides, the AC50 under setting [1] is 29.1 µM [rising, single point].

With `CCOc1ccc(N2C(=O)CC(C(C)c3ccccc3)C2=O)cc1` (stereo not given), the cell number change is -21.5%.

In the case of `CC1CC(C)CN(C(=O)CCc2nnc3ccc(N4CCCCC4)nn23)C1` (stereo not given), the cell number change came to 11.8%.

Regarding `Cc1ccc(S(=O)(=O)c2ccc(Cl)cc2)cc1S(=O)(=O)NC(C)C(=O)O` (stereo not given), the cell number change came to 83.3%. For the same compound, the AC50 under setting [2] was 8.2 µM [rising, partial curve].

On to `Cc1cc2nc(-c3ccc(SCC(=O)Nc4ccc(S(=O)(=O)NC5CC5)cc4)nc3)[nH]c2cc1C`, for which the cell number change is 4.96%. Under setting [1], the AC50 is 2.31 µM [rising, single point].

`Cc1cc(C)nc(SCc2nc3ccccc3n2C)n1`: the cell number change was 0.765%. The half-maximal activity concentration (AC50) under setting [1] is 3.26 µM [rising, partial curve].

`CC1(C)CC(NS(=O)(=O)c2cccc3ccccc23)CC(C)(C)N1`: the cell number change came out at 5.41%.

With `C=CCN1C(=O)/C(=C2/Sc3ccccc3N2CCCS(=O)(=O)O)SC1=S`, the cell number change is -29.1%. Further, the AC50 under setting [2] is 3.26 µM [falling, full curve, poor fit]. For the same compound, under setting [1], the AC50 is 0.651 µM [falling, single point].

`CCCOc1ccc(NC(=O)CC2C(=O)Nc3ccccc3N2CC(=O)N2CCCC2)cc1` (stereo not given): the cell number change amounted to 1.61%. Under setting [1], the concentration at half-maximal activity (AC50) is 2.91 µM [rising, full curve].

As for `O=C1C=CC(=O)N1c1cccc(-c2ccccc2)c1`, the cell number change was -59.4%. Further, the half-maximal activity concentration (AC50) under setting [2] is 23.1 µM [falling, partial curve]. Further, the AC50 under setting [1] was 25.9 µM [falling, partial curve].

On to `CCCCN=c1sc(C(=O)OC)cc(=O)n1CCCC`, for which the cell number change is 78.7%. Moreover, the AC50 under setting [2] was 16.4 µM [rising, single point]. The AC50 under setting [1] was 29.1 µM [rising, single point].

As a reminder, the AC50 is the concentration giving half of the maximal activity seen. Higher therefore signals weaker potency.
